Source: publication PMC8692152
These are yes or no findings as the source states them, for the method shown. In cells and extracts the contact can be indirect. Some binding calls cover weakened binding; strength is not graded here. Where a sequence is shown, tags or fusion partners need not be part of it.

Sequences of proteins named here, by UniProt entry; tags and fusion partners are left off. A change or cut given only in a name is not applied to a line headed by its entry.
UniProt Q16254: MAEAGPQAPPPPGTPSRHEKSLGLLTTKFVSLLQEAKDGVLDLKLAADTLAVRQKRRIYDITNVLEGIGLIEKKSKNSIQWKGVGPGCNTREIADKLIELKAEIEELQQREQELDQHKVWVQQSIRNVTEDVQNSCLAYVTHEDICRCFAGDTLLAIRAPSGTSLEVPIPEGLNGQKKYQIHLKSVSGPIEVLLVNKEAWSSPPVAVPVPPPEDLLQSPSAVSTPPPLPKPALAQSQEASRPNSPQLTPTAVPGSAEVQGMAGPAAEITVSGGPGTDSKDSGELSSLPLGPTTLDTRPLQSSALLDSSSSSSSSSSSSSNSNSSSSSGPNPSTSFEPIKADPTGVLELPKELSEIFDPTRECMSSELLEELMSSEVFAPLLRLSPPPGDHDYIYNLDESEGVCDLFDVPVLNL

Target: T1, mCherry-Id1 fusion protein (Inhibitor of differentiation/DNA binding 1) (UniProt P41134)
T1 sequence: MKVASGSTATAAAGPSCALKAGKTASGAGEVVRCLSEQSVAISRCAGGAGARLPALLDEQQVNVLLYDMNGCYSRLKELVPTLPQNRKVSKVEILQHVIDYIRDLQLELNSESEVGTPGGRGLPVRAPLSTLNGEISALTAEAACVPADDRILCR
Experiment: co-IP; lysates of HepG2 cells overexpressing mCherry-Id1 and EGFP-E2F4; IP with anti-Cherry or anti-GFP, protein A/G agarose; lysis buffer 50 mM Tris-Cl pH 7.5, 50 mM NaCl, 5 mM EDTA, 1% NP-40; 4 C; western blot

binding: binds
Substance: EGFP-E2F4 fusion protein (E2F transcription factor 4) (from UniProt Q16254 1-413)
